Data as given in article PMC3328448.
These are yes or no findings as the source states them, for the method shown. For some assays here: Binding seen in cells or lysates may run through a third protein. Some entries that bind do so weakly or less than the wild type. For some assays here: Where a sequence is shown, tags or fusion partners need not be part of it.

By UniProt entry, the sequences of proteins in these tests, tags left out.
UniProt Q9SXZ2: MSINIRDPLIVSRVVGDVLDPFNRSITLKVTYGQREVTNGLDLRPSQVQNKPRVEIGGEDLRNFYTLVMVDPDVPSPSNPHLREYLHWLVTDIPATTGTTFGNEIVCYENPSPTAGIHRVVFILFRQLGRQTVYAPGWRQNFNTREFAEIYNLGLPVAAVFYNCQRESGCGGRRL

B1: FTIP1 (N501) in pGADT7 (domain or fragment, UniProt Q9FL59 1-501)
chain: MAAKDGAKSQEDYKLKDMKPELGERWPHGGQRGGTGWIGSERAASTYDLVEQMFYLYVRVVKAKDLPPNPVTSNCDPYVEVKIGNYKGKTKHFEKRTNPEWNQVFAFSKDKVQSSTVEVFVRDKEMVTRDEYIGKVVFDMREVPTRVPPDSPLAPQWYRLEDRRGESKKRGEVMVAVWLGTQADEAFPDAWHSDASSVQGEGVQSVRSKVYVSPKLWYLRVNVIEAQDVEPSDRSQPPQAFVKVQVGNQILKTKLCPNKTTNPMWNEDLVFVAAEPFEEQFFLTVENKVTPAKDEVMGRLISPLSVFEKRLDHRAVHSKWYNLEKFGFGALEGDKRHELKFSSRIHLRVCLEGGYHVMDESTLYISDVKPTARQLWKSPIGILEVGILSAQGLSPMKTKDGKATTDPYCVAKYGQKWVRTRTIIDSSSPKWNEQYTWEVYDPCTVITLGVFDNCHLGGSEKSNSGAKVDSRIGKVRIRLSTLEADRIYTHSYPLLVLQTKG
B2: myc-FTIP1(N501) (domain or fragment, UniProt Q9FL59 1-501)
chain: B1 chain

Assays:
[1] = biological target: BD-FT (FLOWERING LOCUS T fused to the Gal4 DNA-binding domain) (Arabidopsis) (UniProt Q9SXZ2); assay: two-hybrid; BD-FT co-transformed with FTIP1 versions in pGADT7; growth on SD-His/-Trp/-Leu with 30 mM 3-amino-1,2,4-triazole; beta-galactosidase assays
GST-FT (Arabidopsis) = GST-FT (Arabidopsis) (UniProt Q9SXZ2); assay: pull-down; GST-FT immobilized on glutathione sepharose beads, incubated with in vitro translated myc-FTIP1(N501); detected with anti-myc antibody; only the target purified

Binder | binding [1] | binding (GST-FT (Arabidopsis))
B1 | binds | 
B2 |  | binds
